Test results reported in PubChem BioAssay AID493014 (National Center for Advancing Translational Sciences (NCATS), 2011).
Screen size: about 340,000 compounds; about 170 (0.05%) were called active. This list was built around the results that the source calls inconclusive (neither active nor inactive); the mix of calls is not that of the screen. The call rests on the fitted dose curve; in most records, active means well fitted inhibition curve with a large enough effect in the signal ratio, with a control signal flat (not every such curve was filed as active); inconclusive means small, poorly fitted or top-dose-only effect, or effect the other way, or a change in a side signal; inactive means flat fitted curve, though single readings scatter; the % refers to the signal ratio. A potency beside an inconclusive call is a rough fit, not a confirmed value.

Assay: qHTS Assay to Find Inhibitors of Chronic Active B-Cell Receptor Signaling;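 on activity change, negative = inhibition: plate controls were basal doxycycline-induced cells for no effect and cells given 10 µM MG132 for full effect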
Conditions: ABC-DLBCL IkBa-CBG/CBR reporter, luminescence ratio (green luciferase fused to IkBa over red control in TMD8 lymphoma cells), 4 h; activity change, negative = inhibition: at 46.1 µM (top of the series) unless noted
Summary of the method: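 Doxycycline induced both beetle luciferases in TMD8 lymphoma cells; IKK-driven degradation limits the IkappaBalpha-fused green signal, while red luminescence normalises for cell number and nonspecific effects. Compounds tested up to 46 uM, 4 hrs.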
Potency means the concentration at half of the fitted maximal effect.

Structure (SMILES)	Potency	activity change, negative = inhibition
COc1ccc(OC)c(NC(=O)c2[nH]c(C)c(C(C)=O)c2C)c1	inconclusive: 12.6 µM [falling, partial curve, poor fit]	
COCCCN1C(=O)c2ccc(C(=O)Nc3ccc(C)cc3C)cc2C1=O	inconclusive: 35.5 µM [falling, partial curve, poor fit]	
O=C(CCOc1ccccc1)Nc1nnc(-c2ccc3c(c2)OCCO3)o1	inconclusive: 35.5 µM [falling, single point]	
CCOC(=O)CSC1=C(C#N)C(=O)NC(c2ccc(OC)cc2)S1 (stereo unspecified)		inconclusive: 3.38%
CC1CC(OCC(O)CN2CCN(Cc3ccccc3)CC2)CC(C)(C)C1 (stereo unspecified)	inconclusive: 6.31 µM [falling, single point]	
C=CCn1c(=NC(=O)c2cccs2)sc2cccc(OC)c21		inconclusive: 9.15%
COc1ccc(-c2ccc(-c3noc(C(C)C)n3)c(OC)n2)cc1		inconclusive: 5.99%
COc1ccc(N(Cc2ccccc2)N=O)cc1		inconclusive: 3.35%
Cc1cc(C)n(-c2cc(N3CCN(C(=O)c4cccc(Br)c4)CC3)ccc2[N+](=O)[O-])n1		inconclusive: -4.89%
O=C(O)CCc1ccc(-c2ccc(Cl)cc2)o1	inconclusive: 18.4 µM [rising, single point]	
O=C1NC2(CCCCCC2)C(=O)N1Cc1ccc(F)cc1Cl		inactive
COC(=O)c1cccc(NC(=O)c2cc3ccccc3o2)c1	inconclusive: 20 µM [falling, partial curve]	
Cc1cc(NC(=O)CSCC(=O)OCc2nnc(-c3ccccc3)o2)no1		inconclusive: 5.57%
Cc1[nH]ncc1-c1nc2ccccc2[nH]1		inactive
CC(=O)NC(=S)Nc1sc2c(c1C#N)CCCCC2		inconclusive: 6.06%
Cc1ccc(NS(=O)(=O)c2ccc(C(=O)NNC(=O)c3ccccc3O)cc2)cc1	inconclusive: 58 µM [rising, partial curve, poor fit]	
COCc1c(C(=O)N2CCc3ccccc32)oc2ccccc12		inconclusive: 8.42%
CCc1nc(SCC(=O)N2CCN(C(=O)c3ccco3)CC2)c2c3c(sc2n1)CCCC3		inactive
Cc1cccc(NC(=O)c2ccc(OCc3c(C)noc3C)cc2)c1C		inconclusive: 2.17%
O=C(NC(=S)Nc1cc(Cl)ccc1O)c1cccc(Br)c1	inconclusive: 25.1 µM [falling, partial curve]	
COC(=O)CCCNC(=O)c1ccc(OS(=O)(=O)c2cc([N+](=O)[O-])ccc2C)cc1		inconclusive: 13.4%
COc1ccc2nc(SCC(=O)NCc3ccc(F)cc3)[nH]c2c1		inconclusive: -16%
C[C@]12C=CC(=O)C=C1CC[C@@H]1[C@@H]2C(=O)C[C@@]2(C)[C@H]1CC[C@]2(O)C(=O)CO		inconclusive: -1.21%
COc1ccc(C(=O)NC(=S)Nc2cccc3cc(O)ccc23)cc1OC		inactive
Cc1ccc(-c2nc(P(=O)(c3ccccc3)c3ccccc3)c(N3CCOCC3)o2)cc1		inactive
CCc1cccc(C)c1NC(=O)c1cc(S(=O)(=O)N2CCC3(CC2)OCCO3)ccc1F		inconclusive: -1.11%

Structure (SMILES)	Potency	activity change, negative = inhibition
NS(=O)(=O)c1ccc(NC(=O)/C=C/c2ccccc2Cl)cc1		inconclusive: -0.699%
CC(C)(C)c1cn(-c2ccccc2)c(=S)[nH]1		inactive
O=C1CCN(Cc2ccc(Br)cc2)CCN1[C@H](CO)c1ccccc1	inconclusive: 35.5 µM [falling, single point]	
Cc1cc(OCc2cc(C(=O)N(C)Cc3nonc3C)no2)cc(C)c1Cl		inactive
Cc1cccc(C(=O)NNC(=O)c2cccc(C)c2)c1	inconclusive: 20.6 µM [falling, single point]	
CC1CCc2c(sc(NC(=O)c3cccs3)c2C(=O)O)C1 (stereo unspecified)	inconclusive: 5.62 µM [rising, single point]	
Nc1nc2nccc(-c3ccccn3)n2n1	inconclusive: 35.5 µM [rising, partial curve, poor fit]	
COc1cc(/C=C(\C#N)c2nc3ccccc3[nH]2)cc(Br)c1OCc1ccc(F)cc1		inactive
Nc1nncn1C(=O)c1ccccc1Cl		inconclusive: -13.3%
O=C(CCC1CCCC1)NCc1cccs1		inconclusive: 13.6%
COc1ccc(-n2c(NC(=O)c3ccc(Br)o3)c(C#N)c3nc4ccccc4nc32)cc1		inconclusive: 1.61%
CCCCNc1c(-c2ccc(OC)c(Sc3ccc(OC)cc3)c2)nc2ccccn12	inconclusive: 29.1 µM [rising, single point]	
CC(=O)NCCc1nc2cc(NC(=O)c3ccc(Cl)cc3)ccc2n1C	inconclusive: 17.8 µM [falling, single point]	
Fc1ccc(NC(=S)NCCN2CCOCC2)c(F)c1F	inconclusive: 28.2 µM [falling, single point]	
CCn1c2ccccc2c2cc(NC(=O)CCCN3C(=O)CCC3=O)ccc21	inconclusive: 3.26 µM [falling, partial curve]	
CCCc1[nH]nc2c1C(c1ccc(OC)cc1OC)C(C#N)=C(N)O2 (stereo unspecified)	inconclusive: 25.9 µM [falling, single point]	
CCOC(=O)N1CCC2(CC1)CC(=O)c1c(ccc3oc(C(=O)O)c(C)c13)O2		inactive
COc1cc(=O)[nH]c(SCc2c(F)c(F)c(F)c(F)c2F)n1		inconclusive: 6.42%
Cc1cccc(COCC(Cc2ccccc2)N2CCN(C(=O)c3cc(Cl)cc(Cl)c3)CCC2=O)c1 (stereo unspecified)		inconclusive: -17.3%
O=C(COc1ccc(Cl)cc1)NNC(=O)c1ccccn1	inconclusive: 35.5 µM [falling, single point]	
COCCCNCCCCOc1c(Cl)cc(C)cc1Br		inconclusive: -17.3%
CN(Cc1ccco1)c1ncnc2ccc(-c3cccnc3)cc12		inconclusive: -18.8%
CCOc1ccc(-c2nc(C#N)c(NC3CC3)o2)cc1		inconclusive: 7.66%
CCCCCc1nnc(NC(=O)c2cccc(S(=O)(=O)N3CCOCC3)c2)s1		inactive
O=C(N/N=C(\c1ccccc1)c1ccccn1)c1ccccc1Cl	inconclusive: 20 µM [falling, partial curve, poor fit]	

Ordered by formula weight (rising): some entries from above.
Structure (SMILES)	Potency	activity change, negative = inhibition
Nc1nc2nccc(-c3ccccn3)n2n1	inconclusive: 35.5 µM [rising, partial curve, poor fit]	
O=C(COc1ccc(Cl)cc1)NNC(=O)c1ccccn1	inconclusive: 35.5 µM [falling, single point]	
CC1CCc2c(sc(NC(=O)c3cccs3)c2C(=O)O)C1 (stereo unspecified)	inconclusive: 5.62 µM [rising, single point]	
COc1ccc(-n2c(NC(=O)c3ccc(Br)o3)c(C#N)c3nc4ccccc4nc32)cc1		inconclusive: 1.61%
